Results on two sequences are retold here after PMC9816388.

The data set deals with CpxR-P (phosphorylated His6-CpxR) (Actinobacillus pleuropneumoniae) (UniProt A0ABM6X2V6). The data set is described as follows: EMSA. The conditions noted are these: acetyl phosphate-phosphorylated CpxR, 2.5 mM Mg2+, 50 mM Tris-HCl pH 8.0, 2.5 mM MgCl2, 100 mM KCl, 0.2 mM DTT, 10% glycerol, 2 ug salmon sperm DNA, 24 C 20 min, probe 1 uM, CpxR-P 0-4 pmol, 4% native PAGE in 0.5x TBE, recombinant protein, protein details: His6 (pET30a), label: biotin, probe letters rebuilt from the primers and the genome.

No signal at the amounts used counts as a negative. Construct, isoform or probe ends are uncertain for at least one entry.

Take “CCGAATCCTTTCGCACTATTGAACCATTTCACGATGCCAACTTCCATAATTCTCTCCTATCTTACGGCATTGATATTACGCGGTGCATTGTAGTCAAAAAAGTGAACCTCACAATCGGAAATGTTTGAAAATTCGAACAAGATCACAAAATTTTTTAAAATACGGAGGTT (double strand) [cspD promoter region]”: the binding result is listed as “no binding”.
“TTGATGAAAAGAATTGCTGCACGTTTGTTTGGAGATTAGAGATTTATTCGCGAAGAACTCTCAGAAAATCAGAAGATTTATAGAAAGGAAAACATCGATAAAGCAATCGTACTCAAGAACGCTACGAGAAGCGTTTTCGATTAGAACATTAAAAAAACATTAAAGCAAATATTTTTTGAACTTATTTATCGGAATTGAAACATAGAAATATATGAACGTAACAAAATAGCGTAATGACTTGATTTTATATAGACGGGAATCCGTAAATAAAATATAGTAGCGGGCTAAGACTCTGTATTGGGTCGGCATCTATTTGGACTTAAAT (double strand) [cspC promoter region]”: where the note is “complex lost with excess (100-fold) unlabeled probe”, the binding result is reported as “binds”.
